These are yes or no findings as the source states them, for the method shown. In cells and extracts the contact can be indirect. These calls come from enrichment with a bait or labelling near it, and not all partners need be listed. For some of these results: Where a sequence is shown, tags or fusion partners need not be part of it. Blank lines part the entries; values can stand above or below the molecule they belong to.
Assays:
[1] = biological target: T1, endogenous FLYWCH1 fused to miniTurboID (knock-in) (human (endogenous in HeLa)) (UniProt Q4VC44); test: proximity labelling; FLYWCH1-miniTurboID knock-in HeLa cells with biotin compared to wild-type HeLa cells with biotin; nuclei, RIPA, streptavidin beads with ethidium bromide, LC-MS (n = 3)
T1 sequence: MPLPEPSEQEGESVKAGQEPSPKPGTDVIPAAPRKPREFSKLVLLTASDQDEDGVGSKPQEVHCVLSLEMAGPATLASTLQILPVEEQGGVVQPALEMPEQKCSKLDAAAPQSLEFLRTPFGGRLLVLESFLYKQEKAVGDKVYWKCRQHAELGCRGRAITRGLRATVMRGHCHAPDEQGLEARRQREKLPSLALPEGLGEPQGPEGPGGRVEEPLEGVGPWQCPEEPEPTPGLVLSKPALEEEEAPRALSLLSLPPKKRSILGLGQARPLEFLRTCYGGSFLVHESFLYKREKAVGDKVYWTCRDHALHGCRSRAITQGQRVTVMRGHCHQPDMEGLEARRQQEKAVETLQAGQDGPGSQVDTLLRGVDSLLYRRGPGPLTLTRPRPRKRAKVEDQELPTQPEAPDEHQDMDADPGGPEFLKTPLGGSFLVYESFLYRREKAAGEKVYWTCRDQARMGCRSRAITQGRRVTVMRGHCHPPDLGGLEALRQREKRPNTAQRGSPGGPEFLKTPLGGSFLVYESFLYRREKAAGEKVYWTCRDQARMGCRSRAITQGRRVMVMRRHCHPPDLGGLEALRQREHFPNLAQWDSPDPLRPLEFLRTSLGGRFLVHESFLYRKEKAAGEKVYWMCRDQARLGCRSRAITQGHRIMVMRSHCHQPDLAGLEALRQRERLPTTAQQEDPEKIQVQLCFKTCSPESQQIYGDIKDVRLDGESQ

Protein sequences, listed by entry. Tags and fused reporters are not part of them.
UniProt Q9NQS7: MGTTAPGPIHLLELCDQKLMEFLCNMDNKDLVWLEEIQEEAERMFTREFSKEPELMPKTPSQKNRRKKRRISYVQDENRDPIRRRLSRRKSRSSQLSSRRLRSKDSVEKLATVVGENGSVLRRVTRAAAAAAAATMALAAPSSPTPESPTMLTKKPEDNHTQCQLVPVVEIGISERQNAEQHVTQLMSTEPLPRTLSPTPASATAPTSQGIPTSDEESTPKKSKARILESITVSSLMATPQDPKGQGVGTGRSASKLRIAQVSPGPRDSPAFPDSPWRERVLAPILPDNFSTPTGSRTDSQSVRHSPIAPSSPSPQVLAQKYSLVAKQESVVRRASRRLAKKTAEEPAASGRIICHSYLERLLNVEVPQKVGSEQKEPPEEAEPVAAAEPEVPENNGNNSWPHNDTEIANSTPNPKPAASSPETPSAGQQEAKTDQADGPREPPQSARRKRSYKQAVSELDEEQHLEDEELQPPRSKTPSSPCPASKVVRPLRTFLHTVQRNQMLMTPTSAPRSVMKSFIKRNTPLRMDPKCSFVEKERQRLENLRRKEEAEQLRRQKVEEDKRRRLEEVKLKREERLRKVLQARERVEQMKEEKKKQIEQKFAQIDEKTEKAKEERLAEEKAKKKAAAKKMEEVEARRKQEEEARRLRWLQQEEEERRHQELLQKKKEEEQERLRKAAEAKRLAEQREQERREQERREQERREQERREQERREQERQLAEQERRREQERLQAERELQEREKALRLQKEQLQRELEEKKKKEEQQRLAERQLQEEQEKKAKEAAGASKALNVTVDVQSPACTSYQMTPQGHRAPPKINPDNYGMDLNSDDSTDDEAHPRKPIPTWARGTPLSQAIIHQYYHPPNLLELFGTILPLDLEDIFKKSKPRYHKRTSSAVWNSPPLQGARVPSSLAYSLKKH
UniProt P20700: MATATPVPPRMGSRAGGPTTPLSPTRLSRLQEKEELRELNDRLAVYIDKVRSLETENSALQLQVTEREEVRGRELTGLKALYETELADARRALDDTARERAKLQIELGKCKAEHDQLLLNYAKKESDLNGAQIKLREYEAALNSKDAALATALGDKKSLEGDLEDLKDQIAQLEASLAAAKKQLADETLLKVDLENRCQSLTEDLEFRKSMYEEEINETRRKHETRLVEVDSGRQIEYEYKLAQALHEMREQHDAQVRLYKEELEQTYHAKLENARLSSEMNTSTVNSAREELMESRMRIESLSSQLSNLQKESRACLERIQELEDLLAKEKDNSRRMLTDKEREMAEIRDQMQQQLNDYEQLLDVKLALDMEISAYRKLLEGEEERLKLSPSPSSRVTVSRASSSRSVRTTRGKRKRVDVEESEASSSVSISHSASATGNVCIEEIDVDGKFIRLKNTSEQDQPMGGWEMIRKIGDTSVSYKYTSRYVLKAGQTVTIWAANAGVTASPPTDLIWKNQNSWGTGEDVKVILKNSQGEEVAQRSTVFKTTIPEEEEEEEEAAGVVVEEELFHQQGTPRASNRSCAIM
UniProt Q8IWI9: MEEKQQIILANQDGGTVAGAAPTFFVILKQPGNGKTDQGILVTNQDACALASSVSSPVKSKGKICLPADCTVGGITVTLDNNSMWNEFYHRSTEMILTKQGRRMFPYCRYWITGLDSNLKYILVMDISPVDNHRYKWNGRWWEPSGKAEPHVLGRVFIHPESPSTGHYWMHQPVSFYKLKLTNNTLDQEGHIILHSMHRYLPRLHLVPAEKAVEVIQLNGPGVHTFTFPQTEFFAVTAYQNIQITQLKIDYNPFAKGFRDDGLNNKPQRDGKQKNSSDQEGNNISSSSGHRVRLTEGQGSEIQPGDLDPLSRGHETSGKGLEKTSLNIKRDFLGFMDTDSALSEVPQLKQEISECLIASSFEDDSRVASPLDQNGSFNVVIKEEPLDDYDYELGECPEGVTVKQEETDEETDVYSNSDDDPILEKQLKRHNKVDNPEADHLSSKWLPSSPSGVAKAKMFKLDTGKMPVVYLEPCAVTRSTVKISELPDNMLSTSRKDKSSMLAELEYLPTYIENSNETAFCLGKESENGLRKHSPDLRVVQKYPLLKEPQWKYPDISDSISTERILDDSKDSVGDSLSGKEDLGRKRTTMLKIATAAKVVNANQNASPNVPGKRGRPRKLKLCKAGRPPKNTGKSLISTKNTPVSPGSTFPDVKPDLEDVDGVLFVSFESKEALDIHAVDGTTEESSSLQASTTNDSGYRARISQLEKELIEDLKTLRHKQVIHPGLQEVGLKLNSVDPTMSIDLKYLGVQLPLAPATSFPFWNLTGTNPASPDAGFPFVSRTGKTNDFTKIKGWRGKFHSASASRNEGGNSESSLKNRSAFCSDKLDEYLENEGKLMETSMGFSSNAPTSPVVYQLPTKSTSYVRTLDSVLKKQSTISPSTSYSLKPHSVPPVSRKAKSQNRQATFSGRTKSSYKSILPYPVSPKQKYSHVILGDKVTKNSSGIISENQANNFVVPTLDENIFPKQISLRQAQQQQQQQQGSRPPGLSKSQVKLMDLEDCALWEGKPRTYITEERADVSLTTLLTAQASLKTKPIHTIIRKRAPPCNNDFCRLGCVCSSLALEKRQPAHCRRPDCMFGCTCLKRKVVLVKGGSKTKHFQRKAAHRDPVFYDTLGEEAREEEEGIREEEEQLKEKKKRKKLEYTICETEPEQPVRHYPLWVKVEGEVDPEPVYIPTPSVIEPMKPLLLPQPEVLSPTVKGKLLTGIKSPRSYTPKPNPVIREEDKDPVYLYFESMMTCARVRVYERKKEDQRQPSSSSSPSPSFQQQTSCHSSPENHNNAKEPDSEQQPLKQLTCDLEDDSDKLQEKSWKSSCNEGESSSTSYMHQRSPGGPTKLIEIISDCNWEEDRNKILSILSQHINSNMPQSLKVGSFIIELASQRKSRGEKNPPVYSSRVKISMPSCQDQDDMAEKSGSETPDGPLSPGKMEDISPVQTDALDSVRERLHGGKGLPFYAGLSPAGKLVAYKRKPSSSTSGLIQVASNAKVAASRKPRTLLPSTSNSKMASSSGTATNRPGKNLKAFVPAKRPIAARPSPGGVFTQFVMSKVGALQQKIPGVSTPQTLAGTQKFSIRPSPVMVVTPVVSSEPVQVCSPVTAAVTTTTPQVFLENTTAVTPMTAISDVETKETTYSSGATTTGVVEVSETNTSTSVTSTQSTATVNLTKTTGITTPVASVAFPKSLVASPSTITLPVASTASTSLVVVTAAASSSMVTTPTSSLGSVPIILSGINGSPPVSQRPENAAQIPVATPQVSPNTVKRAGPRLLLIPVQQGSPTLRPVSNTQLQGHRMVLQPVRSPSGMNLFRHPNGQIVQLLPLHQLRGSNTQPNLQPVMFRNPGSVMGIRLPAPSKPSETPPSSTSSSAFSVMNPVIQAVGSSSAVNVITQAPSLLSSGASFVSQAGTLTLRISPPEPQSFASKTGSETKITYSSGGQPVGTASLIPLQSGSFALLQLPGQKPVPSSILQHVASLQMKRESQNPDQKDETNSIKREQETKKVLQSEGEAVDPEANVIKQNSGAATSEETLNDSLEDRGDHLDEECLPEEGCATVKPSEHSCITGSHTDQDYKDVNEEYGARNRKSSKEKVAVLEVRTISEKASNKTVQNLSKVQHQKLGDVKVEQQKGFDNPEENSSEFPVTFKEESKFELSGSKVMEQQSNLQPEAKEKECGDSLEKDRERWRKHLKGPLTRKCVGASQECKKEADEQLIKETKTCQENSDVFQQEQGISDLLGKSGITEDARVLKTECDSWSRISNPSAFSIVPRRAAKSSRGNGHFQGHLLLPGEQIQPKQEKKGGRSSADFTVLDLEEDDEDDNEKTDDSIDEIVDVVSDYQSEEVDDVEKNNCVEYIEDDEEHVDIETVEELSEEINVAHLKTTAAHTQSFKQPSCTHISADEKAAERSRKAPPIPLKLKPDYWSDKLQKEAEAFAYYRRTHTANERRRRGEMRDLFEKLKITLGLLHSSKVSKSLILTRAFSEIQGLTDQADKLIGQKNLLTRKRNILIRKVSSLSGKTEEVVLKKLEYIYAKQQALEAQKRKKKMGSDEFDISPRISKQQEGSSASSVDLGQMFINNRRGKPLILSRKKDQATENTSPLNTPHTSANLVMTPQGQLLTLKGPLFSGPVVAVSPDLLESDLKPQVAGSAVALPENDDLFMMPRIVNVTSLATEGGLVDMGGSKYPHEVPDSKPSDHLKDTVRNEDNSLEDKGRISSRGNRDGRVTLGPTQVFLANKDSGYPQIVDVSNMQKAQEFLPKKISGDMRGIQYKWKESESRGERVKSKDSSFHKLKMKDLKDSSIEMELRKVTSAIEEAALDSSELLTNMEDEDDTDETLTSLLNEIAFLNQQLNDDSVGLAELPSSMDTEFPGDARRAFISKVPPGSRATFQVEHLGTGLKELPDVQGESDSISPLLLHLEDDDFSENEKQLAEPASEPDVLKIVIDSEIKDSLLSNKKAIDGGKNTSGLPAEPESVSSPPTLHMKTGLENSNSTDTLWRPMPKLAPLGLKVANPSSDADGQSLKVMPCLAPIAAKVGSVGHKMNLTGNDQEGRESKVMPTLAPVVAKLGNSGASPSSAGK
UniProt Q9H9B1: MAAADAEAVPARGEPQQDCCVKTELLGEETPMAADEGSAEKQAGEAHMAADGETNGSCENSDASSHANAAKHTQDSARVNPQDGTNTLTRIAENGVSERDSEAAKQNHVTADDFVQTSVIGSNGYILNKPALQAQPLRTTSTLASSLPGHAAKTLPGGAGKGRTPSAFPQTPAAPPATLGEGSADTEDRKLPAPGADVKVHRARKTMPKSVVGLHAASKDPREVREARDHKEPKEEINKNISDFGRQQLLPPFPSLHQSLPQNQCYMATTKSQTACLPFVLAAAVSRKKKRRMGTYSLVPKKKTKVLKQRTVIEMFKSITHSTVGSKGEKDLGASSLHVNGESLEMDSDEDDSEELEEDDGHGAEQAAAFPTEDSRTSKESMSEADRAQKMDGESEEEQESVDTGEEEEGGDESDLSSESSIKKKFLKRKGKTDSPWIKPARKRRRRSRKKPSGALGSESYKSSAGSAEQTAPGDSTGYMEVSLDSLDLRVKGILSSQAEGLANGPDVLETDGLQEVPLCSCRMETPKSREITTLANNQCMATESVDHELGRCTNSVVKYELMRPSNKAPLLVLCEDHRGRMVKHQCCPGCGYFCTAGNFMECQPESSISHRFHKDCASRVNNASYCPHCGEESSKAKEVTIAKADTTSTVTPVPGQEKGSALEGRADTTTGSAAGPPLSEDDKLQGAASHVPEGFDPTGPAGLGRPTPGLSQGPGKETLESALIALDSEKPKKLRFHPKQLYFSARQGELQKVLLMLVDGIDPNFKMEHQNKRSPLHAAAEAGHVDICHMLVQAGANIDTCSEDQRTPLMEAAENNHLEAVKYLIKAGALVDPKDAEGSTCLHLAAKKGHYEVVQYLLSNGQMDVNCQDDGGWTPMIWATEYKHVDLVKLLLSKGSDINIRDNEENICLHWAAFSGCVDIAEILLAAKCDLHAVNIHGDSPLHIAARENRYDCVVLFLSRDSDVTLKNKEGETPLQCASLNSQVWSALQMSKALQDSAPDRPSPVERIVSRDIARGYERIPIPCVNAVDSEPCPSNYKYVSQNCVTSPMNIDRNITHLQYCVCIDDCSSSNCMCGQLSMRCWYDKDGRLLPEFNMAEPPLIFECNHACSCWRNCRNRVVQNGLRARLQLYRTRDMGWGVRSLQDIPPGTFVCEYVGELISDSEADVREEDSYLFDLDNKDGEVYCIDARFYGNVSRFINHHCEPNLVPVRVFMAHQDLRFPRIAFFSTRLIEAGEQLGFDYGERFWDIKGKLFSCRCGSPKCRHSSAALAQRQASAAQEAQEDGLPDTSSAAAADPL

[2] = biological target: T2, Emerin (human (endogenous in HeLa and primary human fibroblasts)) (UniProt P50402); test: proximity labelling; ProtA-Turbo in fixed (4% PFA), permeabilized HeLa cells or nuclei; bait reached by a primary antibody, then ProtA-Turbo, 5 uM biotin 10 min 37 °C; RIPA lysis, streptavidin beads, label-free LC-MS in triplicate against IgG control
T2 sequence: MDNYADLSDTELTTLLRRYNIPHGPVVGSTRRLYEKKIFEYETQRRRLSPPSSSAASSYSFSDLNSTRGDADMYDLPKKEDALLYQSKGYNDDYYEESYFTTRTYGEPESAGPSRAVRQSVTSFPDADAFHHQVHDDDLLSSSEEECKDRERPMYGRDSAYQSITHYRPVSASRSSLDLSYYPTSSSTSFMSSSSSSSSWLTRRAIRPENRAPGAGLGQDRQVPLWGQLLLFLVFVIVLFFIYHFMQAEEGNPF

[3] = biological target: T3, Emerin (human (endogenous in HeLa and primary human fibroblasts)), P50402; test: as above; conditions: remark: other sources report otherwise
T3 chain: T2 sequence

binding [1]: binds
Molecule: INCENP (from UniProt Q9NQS7 1-918)

binding [2]: binds
Molecule: LMNB1 (from UniProt P20700 1-586)

binding [1]: binds
Molecule: MGA (from UniProt Q8IWI9 1-3065)

binding [1]: binds
B3: CDCA8 (protein, UniProt Q53HL2 1-280)
chain: MAPRKGSSRVAKTNSLRRRKLASFLKDFDREVEIRIKQIESDRQNLLKEVDNLYNIEILRLPKALREMNWLDYFALGGNKQALEEAATADLDITEINKLTAEAIQTPLKSAKTRKVIQVDEMIVEEEEEEENERKNLQTARVKRCPPSKKRTQSIQGKGKGKRSSRANTVTPAVGRLEVSMVKPTPGLTPRFDSRVFKTPGLRTPAAGERIYNISGNGSPLADSKEIFLTVPVGGGESLRLLASDLQRHSIAQLDPEALGNIKKLSNRLAQICSSIRTHK

The next lines start with the molecule.

Molecule: EHMT1 (from UniProt Q9H9B1 1-1298)
binding [1]: binds

B1: TMPO, P42167 1-454 (protein)
chain: MPEFLEDPSVLTKDKLKSELVANNVTLPAGEQRKDVYVQLYLQHLTARNRPPLPAGTNSKGPPDFSSDEEREPTPVLGSGAAAAGRSRAAVGRKATKKTDKPRQEDKDDLDVTELTNEDLLDQLVKYGVNPGPIVGTTRKLYEKKLLKLREQGTESRSSTPLPTISSSAENTRQNGSNDSDRYSDNEEDSKIELKLEKREPLKGRAKTPVTLKQRRVEHNQSYSQAGITETEWTSGSSKGGPLQALTRESTRGSRRTPRKRVETSEHFRIDGPVISESTPIAETIMASSNESLVVNRVTGNFKHASPILPITEFSDIPRRAPKKPLTRAEVGEKTEERRVERDILKEMFPYEASTPTGISASCRRPIKGAAGRPLELSDFRMEESFSSKYVPKYVPLADVKSEKTKKGRSIPVWIKILLFVVVAVFLFLVYQAMETNQVNPFSNFLHVDPRKSN
binding [3]: binds

B2: LMNB2 (protein, UniProt Q03252 1-620)
chain: MSPPSPGRRREQRRPRAAATMATPLPGRAGGPATPLSPTRLSRLQEKEELRELNDRLAHYIDRVRALELENDRLLLKISEKEEVTTREVSGIKALYESELADARRVLDETARERARLQIEIGKLRAELDEVNKSAKKREGELTVAQGRVKDLESLFHRSEVELAAALSDKRGLESDVAELRAQLAKAEDGHAVAKKQLEKETLMRVDLENRCQSLQEELDFRKSVFEEEVRETRRRHERRLVEVDSSRQQEYDFKMAQALEELRSQHDEQVRLYKLELEQTYQAKLDSAKLSSDQNDKAASAAREELKEARMRLESLSYQLSGLQKQASAAEDRIRELEEAMAGERDKFRKMLDAKEQEMTEMRDVMQQQLAEYQELLDVKLALDMEINAYRKLLEGEEERLKLSPSPSSRVTVSRATSSSSGSLSATGRLGRSKRKRLEVEEPLGSGPSVLGTGTGGSGGFHLAQQASASGSVSIEEIDLEGKFVQLKNNSDKDQSLGNWRIKRQVLEGEEIAYKFTPKYILRAGQMVTVWAAGAGVAHSPPSTLVWKGQSSWGTGESFRTVLVNADGEEVAMRTVKKSSVMRENENGEEEEEEAEFGEEDLFHQQGDPRTTSRGCYVM
binding [2]: binds
